Measurements: patent publication US8420855B2, “Insecticidal compounds” (Syngenta Crop Protection LLC, priority 2006, dated 2013)
Some of these results come from one statement about several compounds together.

System: Spodoptera littoralis
Test: Spodoptera littoralis (Egyptian cotton leafworm) cotton leaf disc spray test
Assay type: in vivo
Conditions: application rate of 200 ppm; L1 larvae on cotton leaf discs; mortality, feeding behaviour, growth regulation 3 days after treatment

COc1ccc(NC(=O)c2ccc(F)cc2)c(OC)c1C(=O)Nc1c(C)cc(C(F)(C(F)(F)F)C(F)(F)F)cc1C [Compound A9]
control of Spodoptera littoralis: at least 80%
